{"source": "patent US12146010B2", "about": "“Amine co-initiator mixture” (Arkema UK Limited, priority 2019, dated 2024)", "assay": "Migration of amine co-initiators from cured films into simulant solvents (HPLC)", "details": "60° C. for 10 days, average of three runs, 24 μm cured film, 5% w/w amine", "text": "The following example illustrates the potential to use a mixture of amine co-initiators as defined by this invention as a low-migration co-initiator system.\nFormulations containing 90% w/w Ebecryl 40 (Allnex), 4% w/w SpeedCure BP (Lambson Limited), 1% w/w SpeedCure 2-ITX (Lambson Limited) and 5% w/w of either SpeedCure EDB, SpeedCure 7040 (Lambson Limited) or the amine co-initiator mixture AM1 were cured onto paper strips in 24 μm films under a Hg lamp until fully cured (as determined by the ‘thumb-twist’ test, see Example 3). The cured paper strips were each cut to a size of approx. 100 cm 2 and the mass of cured resin adhered to each piece of paper was recorded. The cured paper strips were each submerged into 15 mL of solvent in sealed pressure vessels and were held at 60° C. in an oven for 10 days; the solvents used were either acetonitrile, 50% v/v ethanol in water, or 3% w/v acetic acid in water. All of the vessels were subsequently allowed to cool to 20-25° C. and the paper strips were removed from the simulant solvents. Samples of each solvent were filtered and injected onto HPLC, and all components dissolved in the solvents were eluted using appropriate HPLC methods. Comparison of peak areas to previously prepared calibration curves allowed for the masses of the amine co-initiators present in the injected volume of solvent to be calculated, and therefore also the total amount of amine dissolved in the 15 mL of simulant solvent for each sample. Since SpeedCure 7040 and mixture AM1 contain multiple components, the peak areas of all components in those mixtures were added together. The total amount of amine which had migrated from the cured films into the simulant solvents is expressed in Tables 4-6 and FIGS. 1-3 as a percentage of the total amount amine present on each cured strip (taken to be 5% of the total amount of cured resin on the strip). […] SpeedCure 2-ITX and SpeedCure BP were also seen to migrate from the cured films into the surrounding solvents in every case (along with other minor impurities), but these were not quantified.", "data": [{"smiles": "CCOC(=O)c1ccc(N(C)C)cc1", "note": "[SpeedCure EDB, ethyl 4-(dimethylamino)benzoate, reference compound]", "values": [{"measurement": "Weight % of Amine Migrated", "setting": "into 3% w/v acetic acid in de-ionised water", "value": "3.5 ^ Weight %"}, {"measurement": "Weight % of Amine Migrated", "setting": "into 50% v/v ethanol in de-ionised water", "value": 42.6, "unit": "Weight %"}, {"measurement": "Weight % of Amine Migrated", "setting": "into acetonitrile", "value": 47.5, "unit": "Weight %"}]}]}
